# In PMC4548235:
# No constants are given. Whether binding was seen depends on the method and setting. In cells and extracts the contact can be indirect. Binding can be weak; no strength is given. Sequences can lack the tags named with a protein.
# Target: T1, 6xHN tagged USP48 (human) (UniProt Q86UV5)
# T1 sequence: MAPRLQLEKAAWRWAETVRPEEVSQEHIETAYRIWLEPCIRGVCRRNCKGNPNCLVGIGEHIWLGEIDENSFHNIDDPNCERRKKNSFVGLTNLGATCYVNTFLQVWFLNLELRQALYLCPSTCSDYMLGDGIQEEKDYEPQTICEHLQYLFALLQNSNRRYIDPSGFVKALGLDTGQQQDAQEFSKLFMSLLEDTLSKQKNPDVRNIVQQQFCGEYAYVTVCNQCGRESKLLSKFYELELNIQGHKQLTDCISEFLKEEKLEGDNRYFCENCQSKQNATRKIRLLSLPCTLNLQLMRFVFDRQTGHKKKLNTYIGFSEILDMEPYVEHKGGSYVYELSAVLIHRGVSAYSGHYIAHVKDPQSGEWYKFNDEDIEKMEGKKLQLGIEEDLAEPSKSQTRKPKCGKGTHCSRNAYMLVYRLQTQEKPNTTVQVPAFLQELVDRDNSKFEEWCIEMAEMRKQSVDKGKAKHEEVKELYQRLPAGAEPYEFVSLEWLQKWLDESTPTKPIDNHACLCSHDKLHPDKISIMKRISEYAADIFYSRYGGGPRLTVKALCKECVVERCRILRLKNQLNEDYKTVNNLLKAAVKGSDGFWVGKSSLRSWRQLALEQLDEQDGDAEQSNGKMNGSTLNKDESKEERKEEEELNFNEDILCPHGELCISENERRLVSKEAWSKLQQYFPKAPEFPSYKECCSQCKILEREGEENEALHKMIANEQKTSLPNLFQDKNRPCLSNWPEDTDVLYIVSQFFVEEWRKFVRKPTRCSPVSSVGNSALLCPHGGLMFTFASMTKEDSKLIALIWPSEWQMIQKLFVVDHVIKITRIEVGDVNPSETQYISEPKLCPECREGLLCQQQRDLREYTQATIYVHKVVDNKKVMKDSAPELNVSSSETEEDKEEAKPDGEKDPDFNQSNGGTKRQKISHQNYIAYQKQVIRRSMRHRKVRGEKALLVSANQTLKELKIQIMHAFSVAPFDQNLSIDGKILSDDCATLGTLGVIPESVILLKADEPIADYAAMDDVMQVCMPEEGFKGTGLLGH
# Experiment: pull-down; called co-immunoprecipitation by the paper: recombinant 6xHN-tagged host protein incubated overnight at 4°C with cleared M. smegmatis lysate expressing the Flag-tagged M. avium protein, captured on His-columns, washed, eluted; western blot with 6xHN and Flag antibodies; only the target purified
substance,measurement,value
Flag-tagged MAV_4563,binding,binds
